Test results reported in paper PMC8348300.

Tested on: human alpha-thrombin (Homo sapiens)
Experiment: binding assay
Conditions: literature value, introduction prints 106 ± 5.1 nM; SPR (OpenSPR, immobilized thrombin): PBS, 0.005% Tween 20, 10 mM KCl, pH 7.4; TBA 1-16 uM (1-8 uM per Results), annealed 95 C 5 min then cooled to room temperature; commercial protein; folded or branched DNA

## GGTTGGTGTGGTTGG [TBA (native)]
  Kd: 103 nM

Construct, isoform or probe ends are uncertain for at least one entry.
